Data as given in PubChem BioAssay AID1259264 (Sanger Institute, 2017)

- Assay: 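Kinases whose loss cuts CL40 colorectal cancer cell survival, alone or with drugs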 (primary screen)
- Cells: CL40 human colorectal cancer cells
- Knock-down reagent: siRNA pool against human genes
- Conditions: DMSO, or an anchor drug: BYL719 at 1 µM, cetuximab at 5 µg/ml, or trametinib at 10 nM
- Measured: 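Viability as a fraction of non-targeting pool control (replicates averaged), control-based robust z-score, plus averaged synergy for each drug: BYL719 1 µM, cetuximab 5 µg/ml, trametinib 10 nM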
- Reading the numbers: robust z-score, siRNA alone and viability, siRNA alone: higher = more viable cells
- Units: viability, siRNA alone in fraction of control
- Hit rule: 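Essential call: siRNA with no drug reaches a robust z under -3 (low cell count); drug synergy scores do not affect it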
- Meaning of the calls: active = essential (lowers viability alone); inactive = not essential
Here is an unselected part of 794 reagents. 15 of all reagents (1.9%) were called active. 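Calls rest on knock-down alone at z-score below -3; synergy scores with the three drugs do not decide them.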 Viability is capped at 1. Not all columns of the deposit are shown. The record does not give: the amount of reagent, the time to read-out.

POLR2B scored robust z-score, siRNA alone -4.94; viability, siRNA alone 0.607; active.
Silencing of TLK2 came out at: robust z-score, siRNA alone 0.536; viability, siRNA alone 1; inactive.
PINK1 showed robust z-score, siRNA alone 0.539; viability, siRNA alone 1; inactive.
For SMG1, the values are robust z-score, siRNA alone -0.839; viability, siRNA alone 0.901; inactive.
Depletion of CNOT1 came out at: robust z-score, siRNA alone -2.67; viability, siRNA alone 0.77; inactive.
After knock-down of DGKA, the screen gave robust z-score, siRNA alone 0.356; viability, siRNA alone 0.987; inactive.
Against WIPF1, the values are robust z-score, siRNA alone -0.128; viability, siRNA alone 0.952; inactive.
Against MAP4K3, the values are robust z-score, siRNA alone -0.31; viability, siRNA alone 0.939; inactive.
PHKA1 showed robust z-score, siRNA alone 0.539; viability, siRNA alone 1; inactive.
EXOSC10 gave robust z-score, siRNA alone -0.583; viability, siRNA alone 0.92; inactive.
Against PRKAR1B the deposit lists robust z-score, siRNA alone -1.23; viability, siRNA alone 0.874; inactive.
After knock-down of PKN3, the record shows robust z-score, siRNA alone 0.539; viability, siRNA alone 1; inactive.
WNK2 showed robust z-score, siRNA alone 0.169; viability, siRNA alone 0.973; inactive.
With knock-down of DNMT3A the results were robust z-score, siRNA alone -0.525; viability, siRNA alone 0.924; inactive.
With knock-down of FN1, the screen gave robust z-score, siRNA alone 0.539; viability, siRNA alone 1; inactive.
With knock-down of CAMK2D the results were robust z-score, siRNA alone 0.539; viability, siRNA alone 1; inactive.
BRD2 showed robust z-score, siRNA alone 0.539; viability, siRNA alone 1; inactive.
Depletion of KCNH2 came out at: robust z-score, siRNA alone 0.539; viability, siRNA alone 1; inactive.
Silencing of CDK2 came out at: robust z-score, siRNA alone 0.539; viability, siRNA alone 1; inactive.
STK32A scored robust z-score, siRNA alone 0.539; viability, siRNA alone 1; inactive.
PTEN gave robust z-score, siRNA alone 0.539; viability, siRNA alone 1; inactive.
Against TP53RK, the values are robust z-score, siRNA alone 0.539; viability, siRNA alone 1; inactive.
Against CAMK1, the values are robust z-score, siRNA alone 0.298; viability, siRNA alone 0.983; inactive.
Against PIK3CD the deposit lists robust z-score, siRNA alone 0.136; viability, siRNA alone 0.971; inactive.
GALK2 gave robust z-score, siRNA alone -0.596; viability, siRNA alone 0.919; inactive.
DYRK1A scored robust z-score, siRNA alone 0.539; viability, siRNA alone 1; inactive.
With knock-down of NUP98, the screen gave robust z-score, siRNA alone -4.79; viability, siRNA alone 0.618; active.
For MAPK14 the deposit lists robust z-score, siRNA alone 0.234; viability, siRNA alone 0.978; inactive.
